The source of these data is PubChem BioAssay AID2685 (National Center for Advancing Translational Sciences (NCATS), 2010).

Structures are written as SMILES. The list shows a part of the results. Further columns of the screen follow, without active or inactive calls. The list favours compounds with an active or inconclusive main result. Words in brackets tell the shape of the fitted curve; partial curves, single points and poor fits give uncertain potencies.

The nature of this assay: qHTS Assay for Lipid Storage Modulators in Drosophila S3 Cells.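 For cell number change: cells counted by Cell Tracker Red CMTPX staining in the red channel.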 To be noted: BODIPY lipid droplet fluorescence, 18-24 h; for cell number change: measured here: cell count max response, cells fed with added oleic acid. The essentials: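 Drosophila S3 cells loaded with oleic acid (400 uM, as added) and compounds at several concentrations; lipid droplets imaged by 488-nm laser-scanning cytometry, 500–530 nm intensity and object ratio to cell channel. Percent activity normalized to 20 uM Triacsin C.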

[1] abbreviates: measured here: lipid fluorescence (Fed channel) AC50, cells fed with added oleic acid.
[2] abbreviates: measured here: cell number channel AC50, cells fed with added oleic acid.

Usually AC50 stands for the midpoint of the concentration-response curve, whichever way the signal moves.

On to `O=C(/C=C/c1ccccc1)Nc1cc(NC(=O)/C=C/c2ccccc2)cc(C(=O)O)c1`, for which the cell number change is -2.96%.

For the compound `O=C(NC1CCCCC1)C12CC3CC(C1)CC(n1cncn1)(C3)C2`, the cell number change was -5.94%.

Take `COc1ccccc1-n1nnnc1SCC(=O)NC1CCCCC1`: the cell number change was 11.5%. The AC50 under setting [1] is 0.116 µM [falling, single point].

As to `COc1ccc(CNC(=O)CN2C(=O)c3ccc([N+](=O)[O-])cc3C2=O)cc1`, the cell number change stood at 50%.

Regarding `N/C(=N\c1nc(CSc2nc3ccccc3s2)cc(=O)[nH]1)Nc1ccc(F)cc1`, the cell number change was determined as 9.55%. The AC50 under setting [1] is 0.517 µM [rising, full curve, poor fit].

Consider `FC(F)(F)c1nc2ccccc2nc1N/N=C/c1c(Cl)cccc1Cl`, for which the cell number change is -62.3%. Also, under setting [2], the AC50 is 4.11 µM [falling, full curve, poor fit].

As to `Cc1nnc(SCc2nnc(-c3cccs3)o2)n1Cc1ccccc1`, the cell number change was 46.7%. Also, the AC50 under setting [2] is 29.1 µM [rising, single point]. The AC50 under setting [1] is 0.411 µM [rising, single point].

Consider `COc1ccc(NCc2nnc(SCC(=O)NNC(=O)c3ccc(C)cc3)n2C)cc1`, for which the cell number change was -34%. Also, the AC50 under setting [2] was 5.17 µM [falling, full curve]. Also, under setting [1], the AC50 is 6.51 µM [falling, single point].

As for `CSc1nc2ccc(NC(=O)c3c(F)cccc3F)cc2s1`, the cell number change is 89.5%.

For `CCNC(=O)NC(=O)CSc1ccc(S(=O)(=O)N2CCCCC2)cn1`, the cell number change came to 40.9%. For the same compound, under setting [2], the AC50 was 29.1 µM [rising, single point]. Besides, under setting [1], the AC50 is 0.651 µM [falling, single point].

As for `CC1CN(S(=O)(=O)c2ccccc2)CN1C(=O)N1CCOCC1` (stereo not given), the cell number change worked out at 12.2%.

Take `COc1ccccc1/C=C1\SC(=S)N(CCC(=O)NC2=NCCS2)C1=O`: the cell number change turned out to be 41.4%. Further, the AC50 under setting [2] was 0.206 µM [rising, partial curve, poor fit]. In addition, the AC50 under setting [1] was 1.64 µM [rising, partial curve].

With `Cc1ccc(NC(=O)c2cc(S(=O)(=O)N3CCOCC3)cn2C)cc1Cl`, the cell number change is -4.32%. For the same compound, under setting [1], the AC50 is 29.1 µM [falling, single point].

`Cc1cc(O)ccc1C1(c2ccc(O)cc2C)OC(=O)c2ccccc21`: the cell number change is -39.2%. Besides, the AC50 under setting [2] was 29.1 µM [falling, single point]. Further, under setting [1], the AC50 was 29.1 µM [falling, single point].

In the case of `O=C(NC1CCCC1)C(c1ccncc1)N(C(=O)c1ccco1)c1ccc(F)c(Cl)c1` (stereo not given), the cell number change was -2.08%.

`CN(CC(=O)Nc1ccccc1Cl)C(=O)COC(=O)C1CC1`: the cell number change is 11.4%.

Regarding `CSc1nc2c(cnn2-c2ccccc2)c(=O)n1N`, the cell number change was found to be 44.7%. Also, the AC50 under setting [2] is 0.259 µM [rising, full curve]. For the same compound, the AC50 under setting [1] was 0.164 µM [rising, full curve].

As for `CCCc1nnc(NC(=O)C(=O)NCCN(C)C)s1`, the cell number change is 28%. Besides, the half-maximal activity concentration (AC50) under setting [1] was 16.4 µM [rising, single point].

With `CCCC(=O)C1=C(O)C(C(=O)OC)C(C)(C)CC1=NC(C)(C)C` (stereo not given), the cell number change worked out at 36.8%. The AC50 under setting [2] was 29.1 µM [rising, single point].

With `COc1cc(S(=O)(=O)N2CCCCC2)ccc1NC(=O)/C=C/c1ccccc1`, the cell number change was found to be 42.3%. Under setting [2], the AC50 is 6.51 µM [rising, partial curve]. For the same compound, under setting [1], the AC50 was 2.91 µM [rising, single point].

With `COc1ccc(CNC(c2ccccc2)c2ccc(Cl)cc2)cc1` (stereo not given), the cell number change is 67.5%. Under setting [2], the AC50 is 29.1 µM [rising, single point]. Besides, under setting [1], the AC50 was 29.1 µM [rising, single point].

On to `Cc1ccc(CNc2ncnc3cc(Cl)ccc23)o1`, for which the cell number change came to 21%. Moreover, under setting [1], the AC50 was 5.17 µM [rising, full curve].

On to `Cc1cc(C)n(-c2ccc(NC(=O)C3CCCCN3C(=O)c3occc3C)cc2)n1` (stereo not given), for which the cell number change was 42.7%. Under setting [2], the AC50 is 14.6 µM [rising, partial curve, poor fit]. For the same compound, the AC50 under setting [1] was 29.1 µM [rising, single point].

With `CCN(C(=O)CSc1nc2ccc(O)cc2c(=O)n1-c1ccc(OC)c(OC)c1)C1CCS(=O)(=O)C1` (stereo not given), the cell number change is 17%.

Turning to `Cc1ccc(S(=O)(=O)N2CCN(CC(=O)Nc3ccccc3Cl)CC2)cc1`, the cell number change was -6.64%. For the same compound, the AC50 under setting [1] is 4.11 µM [falling, full curve, poor fit].

As for `N#CC(/C(=N/S(=O)(=O)c1cccs1)c1ccccc1)c1nc2ccccc2[nH]1` (stereo not given), the cell number change turned out to be 5.95%. For the same compound, the AC50 under setting [1] is 0.731 µM [falling, single point].

Take `Cc1nnc(C)n1/N=C/c1cc(Br)cc(Br)c1O`: the cell number change turned out to be 1.36%. Moreover, under setting [1], the AC50 is 23.1 µM [falling, single point].

Turning to `COc1ccc(-c2nnc(SCC(=O)Nc3ncc(C(F)(F)F)cc3Cl)n2CC(C)C)cc1`, the cell number change was determined as 17.1%. Also, the AC50 under setting [2] is 6.51 µM [falling, single point]. For the same compound, the AC50 under setting [1] was 13 µM [rising, partial curve, poor fit].

Take `CC1=C(C(=O)Nc2ccccc2)C(c2cccc([N+](=O)[O-])c2)Nc2nc3ccccc3n21` (stereo not given): the cell number change was -51.2%. In addition, the AC50 under setting [2] was 29.1 µM [falling, single point]. Also, the AC50 under setting [1] was 0.259 µM [rising, full curve].

In the case of `O=S(=O)(/N=C(/Nc1ccc(Cl)c(S(=O)(=O)N2CCOCC2)c1)c1ccc(F)cc1)c1ccccc1`, the cell number change amounted to 31.4%. Further, under setting [2], the AC50 is 2.06 µM [rising, full curve]. Moreover, under setting [1], the AC50 was 1.16 µM [rising, partial curve].

For `CCc1ccc(N(CC(=O)N2CCCCCC2)S(C)(=O)=O)cc1`, the cell number change was -19.9%. The AC50 under setting [1] is 29.1 µM [falling, single point].

As to `CC(C)C(C(=O)N1CCN(Cc2ccccc2)CC1)c1ccccc1` (stereo not given), the cell number change was determined as 2.41%. Under setting [1], the AC50 is 3.66 µM [rising, single point].

Regarding `CCCCN(CCCC)CCNC(=O)c1cn(C)c2ccc(S(=O)(=O)N(C)C3CCCCC3)cc2c1=O`, the cell number change turned out to be 18.3%.

As for `COc1ccccc1C(=O)NC(=O)COC(=O)c1ccc([N+](=O)[O-])cc1`, the cell number change is -23.7%. Moreover, the AC50 under setting [1] is 0.13 µM [falling, full curve].

Take `COc1ccc(NC(=O)c2ccco2)cc1NC(=O)c1ccco1`: the cell number change stood at 1.94%. Under setting [1], the AC50 was 13 µM [rising, partial curve].

Take `Cc1cccc(NC(=O)CSc2ncnc3sc(C)cc23)c1`: the cell number change came out at 10.4%. In addition, the AC50 under setting [1] was 11.6 µM [falling, single point].

Regarding `CC(Oc1ccc2c3c(c(=O)oc2c1)CCCC3)C(=O)NCc1ccncc1` (stereo not given), the cell number change is -36.1%.

As to `CN(CC(=O)Nc1cccc(F)c1)CC(=O)Nc1cccc(S(=O)(=O)N2CCCCC2)c1`, the cell number change is -10.7%. Also, the AC50 under setting [1] was 32.6 µM [falling, single point].

Take `Cc1nnc(SC/C=C/c2ccccc2)n(N)c1=O`: the cell number change is -38.4%. Also, under setting [2], the AC50 was 0.146 µM [falling, full curve, poor fit].

For the compound `CCN(CC)S(=O)(=O)c1ccc(Cl)c(NC(C)=O)c1`, the cell number change was -40.6%. The AC50 under setting [2] was 29.1 µM [falling, single point].

As for `CCOC(=O)c1nnsc1NC(C)=O`, the cell number change came to 90.4%. In addition, the half-maximal activity concentration (AC50) under setting [2] is 8.2 µM [rising, partial curve]. For the same compound, under setting [1], the AC50 is 6.51 µM [rising, single point].

As for `O=c1c2cnn(-c3ccccc3)c2nc(-c2cccs2)n1-c1cccc(Cl)c1`, the cell number change is -15.2%. In addition, the AC50 under setting [1] was 11.6 µM [falling, partial curve].

For `CCc1c(C)nc(N)c(C#N)c1-c1ccccc1`, the cell number change is -1.16%. In addition, under setting [1], the AC50 is 0.103 µM [falling, full curve, poor fit].

As for `O=C(OCCN1C(=O)c2ccccc2C1=O)c1ccc(S(=O)(=O)N2CCCCCC2)cc1`, the cell number change was -89.8%. The AC50 under setting [2] was 9.2 µM [falling, partial curve].

Regarding `O=C(Cc1ccc(Cl)cc1)NCCN1CCCC1`, the cell number change is -43.4%. The AC50 under setting [2] was 1.46 µM [falling, full curve]. The AC50 under setting [1] was 1.46 µM [falling, full curve].

Take `O=C(CSc1nnc2c(n1)[nH]c1ccccc12)Nc1cccc(S(=O)(=O)N2CCOCC2)c1`: the cell number change is -30.1%. Besides, the AC50 under setting [2] is 9.2 µM [falling, partial curve]. Also, under setting [1], the AC50 is 6.51 µM [falling, partial curve].

With `C/C(CCc1oc2ccccc2c1-c1ccc(C)o1)=N/O`, the cell number change was -52.1%. Moreover, the AC50 under setting [2] was 29.1 µM [falling, single point]. Moreover, the AC50 under setting [1] is 23.1 µM [falling, partial curve, poor fit].

Consider `COc1ccccc1NC(=O)c1cc(S(=O)(=O)NC2CCCC2)ccc1F`, for which the cell number change was -3.23%.

For the compound `COc1cc(-c2nc3cccc(C)n3c2NCC2CCCO2)ccc1O` (stereo not given), the cell number change is -10.8%. In addition, the AC50 under setting [1] is 0.164 µM [falling, full curve, poor fit].

`Cc1ccc(CNCc2cc3c(C(C)(C)C)nn(-c4ccccc4)c3[nH]c2=O)cc1`: the cell number change is -80.5%. In addition, under setting [2], the AC50 was 29.1 µM [falling, single point].

As to `CCOC(=O)c1nn(-c2ccccc2F)c(-c2ccccc2)c1C(=O)c1ccccc1`, the cell number change turned out to be 2.3%. Moreover, the AC50 under setting [1] was 0.146 µM [rising, full curve, poor fit].

Consider `Cc1ccc(CNC(=O)CN(C)S(=O)(=O)c2cnc[nH]2)cc1`, for which the cell number change stood at 8.91%. Further, the AC50 under setting [1] is 0.164 µM [falling, full curve, poor fit].

`COc1ccc(-c2nn(-c3ccccc3)cc2/C=C/C(=O)OCC(=O)Nc2cccc(C#N)c2)cc1`: the cell number change is 21.8%. The AC50 under setting [1] was 0.0058 µM [rising, full curve, poor fit].

Turning to `CCOc1ccc(NC(=O)C2CC(=O)N(CCc3ccc(OC)c(OC)c3)C2)cc1OCC` (stereo not given), the cell number change was 2.15%. Also, under setting [2], the AC50 is 4.11 µM [rising, single point]. For the same compound, under setting [1], the AC50 was 1.3 µM [rising, partial curve].

As for `Cc1cc(C)nc(SCc2nnc(SCC(=O)N3CCCc4ccccc43)o2)n1`, the cell number change was found to be 33.4%. Besides, the AC50 under setting [2] is 6.51 µM [rising, single point].

For the compound `COc1cc(NC(=O)c2ccc(C)cc2)c(OC)cc1NC(=O)CN1CCOCC1`, the cell number change stood at 1.94%. Also, the AC50 under setting [1] was 0.13 µM [falling, full curve, poor fit].

Take `Cc1ccc(C(=O)Nc2cc(-c3ccn[nH]3)c(C)n(N)c2=O)cc1`: the cell number change was 46%. Further, the AC50 under setting [2] was 0.411 µM [rising, partial curve, poor fit].
